Some of the results follow. The main result of the screen is listed elsewhere. These columns were measured beside it and carry no call. Compounds called inactive in the main read-out are mostly missing here. Potencies come from curve fits of mixed quality, noted in brackets.
Experiment: qHTS Assay to Find Inhibitors of Chronic Active B-Cell Receptor Signaling
Conditions: ABC-DLBCL IkBa-CBG/CBR reporter, luminescence ratio (green luciferase fused to IkBa over red control in TMD8 lymphoma cells), 4 h
Procedure, shortened: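 TMD8 human ABC-DLBCL cells with doxycycline-inducible IκBα–green luciferase fusion and unfused red luciferase, in 0.5% FBS medium; compounds up to 46 uM, 4 h at 37C. Green/red luminescence ratio, filter-overlap corrected, fitted to concentration-response curves.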

[1] = measured here: CBR red luminescence, cell number
[2] = measured here: IkBa-CBG green luminescence

Compound	AC50 [1]	AC50 [2]
CCC(O)CNc1nc(SC)nc2sc3c(c12)CCN(C)C3 (stereo unspecified)	15.8 µM [falling, single point]	–
Cc1ccc(NC(=O)CN(c2cc(C)cc(C)c2)S(=O)(=O)c2c(C)noc2C)nc1	11.2 µM [falling, partial curve]	–
Cc1ccc(S(=O)(=O)N2C(=O)C(c3ccccc3)SC2=Nc2ccccc2)cc1 (stereo unspecified)	16.4 µM [falling, single point]	–
COc1cc(OC)cc(C(=O)OCC(=O)Nc2ccc(F)cc2F)c1	0.1 µM [rising, full curve, poor fit]	–
O=C(N=Nc1c(O)[nH]c2ccccc12)c1ccc2c(c1)OCO2	2.51 µM [falling, full curve, poor fit]	–
Cn1ccnc1Sc1cc(Cl)ccc1[N+](=O)[O-]	14.1 µM [rising, single point]	–
O=C(O)CCCN1C(=O)/C(=C/c2ccc(-c3nc4ccccc4s3)o2)SC1=S	7.31 µM [falling, partial curve, poor fit]	–
CCOc1cccc(-c2nc3cc(C)ccc3o2)c1	1.26 µM [rising, full curve, poor fit]	–
CCCc1nnc(SCC(=O)NC2CC2)n1C	35.5 µM [falling, single point]	–
CCOc1ccccc1NC(=O)C1C2C=CC(C2)C1C(=O)O (stereo unspecified)	0.231 µM [rising, full curve, poor fit]	–
COc1cc2[nH]c(C(=O)N3CCc4ccccc4C3)cc2c(OC)c1OC	2.82 µM [falling, full curve, poor fit]	–
CCN(c1ccccc1)S(=O)(=O)c1ccc(N2CCN(c3ccc(O)cc3)CC2)nc1	29.1 µM [falling, single point]	–
CCOC(=O)Cc1csc(NC(=S)NC(=O)c2ccc(Cl)cc2)n1	0.891 µM [falling, partial curve, poor fit]	–
Cc1noc(C)c1C(=O)OCC(=O)N(C)C1(C#N)CCCCC1	9.2 µM [falling, partial curve, poor fit]	–
CCOC(=O)C1=C(CC)Nc2ccccc2N=C1NC(=O)c1cc(C)on1	29.1 µM [rising, single point]	–
COc1cccc(/C=C2\SC(=S)N(CCCC(=O)N3CCCCC3)C2=O)c1	22.4 µM [falling, partial curve, poor fit]	–
Cc1cc(C)cc(NC(=O)C2CC3CCC2C3)c1 (stereo unspecified)	14.1 µM [rising, partial curve]	–
Cc1ccccc1OCC(=O)O/N=C(\N)Cc1ccc(Cl)cc1	29.1 µM [falling, single point]	–
COC(=O)/C=C(\C)N=Nc1c(O)[nH]c2ccccc12	3.98 µM [rising, full curve, poor fit]	–
C/C=C/c1ccc(OCCCNC2CCCC2)c(OC)c1	0.146 µM [rising, full curve, poor fit]	–
CCOC(=O)CCS(=O)(=O)c1nc(-c2ccccc2)cc(C(F)(F)F)n1	2.59 µM [falling, full curve]	–

Of the compounds above, these have a COOH group.
Compound	AC50 [1]	AC50 [2]
O=C(O)CCCN1C(=O)/C(=C/c2ccc(-c3nc4ccccc4s3)o2)SC1=S	7.31 µM [falling, partial curve, poor fit]	–
CCOc1ccccc1NC(=O)C1C2C=CC(C2)C1C(=O)O (stereo unspecified)	0.231 µM [rising, full curve, poor fit]	–

(continued)

Compound	AC50 [1]	AC50 [2]
CCOc1cc(NC(=S)NCCOC)c(OCC)cc1NC(=O)c1cccs1	17.8 µM [falling, partial curve]	–
Nc1nc(N)c(N=Nc2ccc(C(=O)O)cc2)c(N)n1	22.4 µM [falling, partial curve, poor fit]	–
Cc1ccc2oc(Nc3nc(-c4ccccc4)cc(=O)[nH]3)nc2c1	8.91 µM [rising, partial curve]	2.82 µM [falling, partial curve, poor fit]
O=C(NCC1COc2ccccc2O1)c1cc(S(=O)(=O)N2CCOCC2)ccc1F (stereo unspecified)	4.61 µM [rising, partial curve, poor fit]	–
COc1cccc(/C=C/c2ccc3ccccc3n2)c1OC(C)=O	12.6 µM [falling, partial curve]	–
COCCCn1c(O)c(/C=C2\N=C(C#N)C(=Nc3ccc(C)cc3)O2)sc1=S	3.16 µM [falling, single point]	–
CC(=O)Nc1ccc(S(=O)(=O)NCCCN2CCN(Cc3ccccc3)CC2)cc1Cl	35.5 µM [falling, single point]	–
COc1ccc(CNC(=O)C2CCN(C(=O)c3ccc(-c4ccccc4)cc3)CC2)cc1	35.5 µM [falling, single point]	–
Cc1cccc(C(=O)Nc2ccccc2SCC2CSc3nc4ccccc4c(=O)n32)c1 (stereo unspecified)	2.59 µM [falling, full curve, poor fit]	–
Cn1cc(/C=C2\SC(=O)N(c3ccc(O)cc3)C2=O)c2ccccc21	2.82 µM [falling, partial curve]	31.6 µM [rising, single point]
O=C(NCc1ccccn1)c1ccc(N2CCCC2)c([N+](=O)[O-])c1	11.2 µM [rising, partial curve]	–
COc1ccc(CNC(=O)c2c(Nc3ccccc3C)sc(C(=O)c3ccccc3)c2N)cc1	14.1 µM [falling, partial curve]	22.4 µM [falling, single point]
O=C(CCNS(=O)(=O)c1ccc(Cl)cc1)Nc1ccncc1	35.5 µM [falling, single point]	–
Cc1ccc(CN2C(=O)CCC2C(=O)NC2CCCC2)cc1 (stereo unspecified)	25.9 µM [rising, single point]	–
COc1ccc(-c2coc3cc(O[C@@H]4O[C@H](CO)[C@@H](O)[C@H](O)[C@H]4O)c(OC)cc3c2=O)cc1	16.4 µM [rising, single point]	–
COc1ccc(N2CCN(C(=S)NC(=O)c3cccs3)CC2)c([N+](=O)[O-])c1	17.8 µM [rising, single point]	–
Cn1c(SCc2ccc(Br)cc2)nnc1-c1cccs1	3.16 µM [rising, partial curve, poor fit]	–
COCCn1c(=O)[nH]c(=O)c2cc(C(=O)c3cc(Cl)ccc3O)cnc21	11.2 µM [falling, partial curve, poor fit]	–
C/C(N)=C(/C#N)C(=O)CSc1nnc(COc2ccccc2Cl)o1	23.1 µM [rising, single point]	–
Fc1ccc(NC(=S)N2CCCC2)cc1Cl	11.6 µM [rising, partial curve, poor fit]	–
Cc1oc2c(CN3CCCC(C)C3)c(O)ccc2c(=O)c1-c1ccccc1 (stereo unspecified)	3.55 µM [falling, single point]	–

Compound	AC50 [1]	AC50 [2]
CC(=Nc1ccccc1O)c1sc2ccccc2c1O	25.1 µM [falling, single point]	–
C/C(CC(=O)NCc1ccccc1)=N\NC(=O)c1cnccn1	11.6 µM [falling, partial curve]	–
Cc1ccc(-c2csc(NC(=O)c3cccc(N4C(=O)CCC4=O)c3)n2)o1	5.8 µM [falling, full curve]	–
O=c1[nH]c(NCCO)nc2c1C1(CCCCC1)Cc1ccccc1-2	29.1 µM [falling, single point]	–
CCOC(=O)N1CCN(C(=O)c2cc(COc3cccc(C(F)(F)F)c3)on2)CC1	35.5 µM [falling, single point]	–
Cc1nnc(NC(=O)/C=C/c2ccco2)s1	29.1 µM [falling, single point]	–
NC1=NC(c2ccccc2)N=C(Nc2ccccc2)N1 (stereo unspecified)	1.26 µM [falling, full curve, poor fit]	–
Cc1nn(C)c(C)c1NC(=O)CSc1nc(C2CC2)nc2c1cnn2-c1ccccc1	6.31 µM [falling, partial curve, poor fit]	–
CCOC(=O)c1nnc(-c2ccc(C)cc2)nc1Oc1ccccc1Cl	16.4 µM [falling, partial curve]	–
COc1ccccc1CNC(=O)C(=O)NCC1CCCO1 (stereo unspecified)	18.4 µM [falling, partial curve]	–
O=C(O)c1ccc(S(=O)(=O)N2CCCC2)cc1	35.5 µM [falling, single point]	–
CCOC(=O)C1C(=O)OC(C)(C)C1C(C)C(=O)c1ccccc1 (stereo unspecified)	20.6 µM [rising, single point]	–
Cc1ccc(NC(=O)c2ccc3c(=O)n4c(nc3c2)CCCCC4)nc1	18.4 µM [falling, single point]	–
COc1cc(OC)c2c(-c3cccc(-c4ccc(CO)cc4)c3)cc(=O)oc2c1	2.06 µM [rising, partial curve]	1.84 µM [falling, partial curve, poor fit]
Cc1cccc(Nc2nnc(SCC(=O)Nc3cccnc3Cl)s2)c1	6.51 µM [rising, single point]	–
Fc1ccccc1COc1cccc(/C=N/n2cnnc2)c1	8.91 µM [rising, partial curve, poor fit]	–
Cc1sc(NC(=S)NC(=O)c2ccco2)c(C(N)=O)c1C	0.708 µM [rising, full curve, poor fit]	–
C#CCOCCOCCOCCNc1nc(N2CCN(C(=O)CCCCCCCCCCNC(=O)[C@H](CCCCN)n3cc(CCCC(=O)O)nn3)CC2)nc(N2CCN(C(=O)CCCCCCCCCCNC(=O)[C@H](CCCN=C(N)N)n3cc(C[C@@H](C)CC)nn3)CC2)n1	29.1 µM [rising, single point]	–
COc1ccc(CC(NC(C)=O)C(=O)N2CCN(C(=O)Nc3ccc(Cl)cc3)CC2)cc1OC (stereo unspecified)	1.78 µM [rising, partial curve, poor fit]	–
N#Cc1c(NC(=O)CSc2nnc(-c3ccccc3O)n2-c2ccccc2)sc2c1CCCC2	0.411 µM [rising, partial curve, poor fit]	–

Source: PubChem BioAssay AID493014 (National Center for Advancing Translational Sciences (NCATS), 2011)
